Results published in patent US20210198329A1 (PASTEUR INSTITUTE OF IRAN, published 2021).
These are yes or no findings as the source states them, for the method shown. Some results given as binding are weak or reduced against the parent protein; the word gives no strength.

Sequences of proteins named here, by UniProt entry; tags and fusion partners are left off. Residues count along the entry.
UniProt O75581, residues 20-1370: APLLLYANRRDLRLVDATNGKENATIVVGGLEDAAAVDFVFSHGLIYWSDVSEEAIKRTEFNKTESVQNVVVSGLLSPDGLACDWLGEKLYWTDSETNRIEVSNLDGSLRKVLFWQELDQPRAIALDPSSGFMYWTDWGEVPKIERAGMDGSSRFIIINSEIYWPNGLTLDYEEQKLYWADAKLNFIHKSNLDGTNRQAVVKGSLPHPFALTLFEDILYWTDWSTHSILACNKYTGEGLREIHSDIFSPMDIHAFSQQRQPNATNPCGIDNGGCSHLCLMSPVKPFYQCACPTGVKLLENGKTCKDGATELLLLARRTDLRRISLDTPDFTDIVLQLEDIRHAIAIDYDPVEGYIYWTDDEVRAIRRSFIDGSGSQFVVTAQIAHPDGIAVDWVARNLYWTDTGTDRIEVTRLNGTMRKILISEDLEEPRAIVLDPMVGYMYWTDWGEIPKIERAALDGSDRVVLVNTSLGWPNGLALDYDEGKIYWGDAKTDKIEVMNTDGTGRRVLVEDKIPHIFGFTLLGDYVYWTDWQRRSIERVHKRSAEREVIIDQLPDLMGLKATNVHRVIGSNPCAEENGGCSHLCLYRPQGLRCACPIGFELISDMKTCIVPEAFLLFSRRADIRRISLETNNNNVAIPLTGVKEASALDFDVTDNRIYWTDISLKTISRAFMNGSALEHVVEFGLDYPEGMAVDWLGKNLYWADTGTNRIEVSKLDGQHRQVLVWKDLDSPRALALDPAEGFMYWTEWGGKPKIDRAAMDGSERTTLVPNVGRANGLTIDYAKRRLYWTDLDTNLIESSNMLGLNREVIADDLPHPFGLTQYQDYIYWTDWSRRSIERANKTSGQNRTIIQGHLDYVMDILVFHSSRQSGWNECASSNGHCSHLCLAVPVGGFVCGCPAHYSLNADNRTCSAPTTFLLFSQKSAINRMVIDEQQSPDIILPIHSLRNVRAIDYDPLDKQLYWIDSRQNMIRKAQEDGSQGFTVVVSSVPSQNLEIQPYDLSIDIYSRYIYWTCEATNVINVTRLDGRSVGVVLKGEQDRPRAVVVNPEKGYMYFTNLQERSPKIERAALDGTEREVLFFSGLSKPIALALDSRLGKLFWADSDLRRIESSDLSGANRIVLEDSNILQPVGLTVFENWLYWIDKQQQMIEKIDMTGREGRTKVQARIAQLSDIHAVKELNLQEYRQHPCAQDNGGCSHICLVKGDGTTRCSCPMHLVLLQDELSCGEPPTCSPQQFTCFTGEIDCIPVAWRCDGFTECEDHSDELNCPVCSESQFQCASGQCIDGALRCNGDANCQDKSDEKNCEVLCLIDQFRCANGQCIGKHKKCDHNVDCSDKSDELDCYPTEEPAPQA

Legend:
[1] = biological target: low-density lipoprotein receptor-related protein 6 (LRP6) (UniProt O75581); assay: LSPR spectroscopy
[2] = biological target: low-density lipoprotein receptor-related protein 6 (LRP6) (UniProt O75581); assay: LSPR spectroscopy; peptide immobilised on nanoparticles as ligand, LRP6 added as analyte; x axis is the LRP6 concentration (M), axis broken twice

B1: pep-2 (SEQ ID NO: 2) (peptide)
peptide: QVCTKHRRKGSHGLEIFQRCY
notes: Held on nanoparticles as the ligand in the LSPR assay
What does the source list for B1?
binding [1]: binds; binding [2]: binds
